Drawing on PubChem BioAssay AID1508600 (Functional Genomics Laboratory (NCATS/FGL), 2020), this text covers z-score for 107 sequences.

About 3,700 (7%) of roughly 53,000 sequences were called active.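 The calls were made as follows: active = gene knockdowns whose robust z-score for IL-1 alpha signal is at least 2 or at most -2, so actives lie on both sides; inactive = the rest.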 The list shows a part of the results.

The nature of the experiment: Components of the Cytosolic LPS Sensing Pathway: Gene Identification via Genome-wide siRNA Screen.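 Also: robust z of the log signal after scaling to non-targeting control siRNA wells of the plate.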 Conditions: RAW264.7 macrophages, IL-1a HTRF, actives lie on both sides, screened at 100 nM (by protocol), cells primed 5 h with Pam3CSK4 first. The gist of the method: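 Knockdown: 100 nM siRNA, 48h, RAW264.7. Stimulation: Pam3CSK4 5 h, then LipidA via TransIT-TKO 24 h. Output: supernatant IL-1a HTRF, negative-control-normalized, log robust z-score; viability by CellTiter-Glo.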
(In general: In TR-FRET formats the signal depends on donor and acceptor labels being close together.)
Consider CCAGUCAUUGUGCUUGUUATT against Sox12, for which the z-score is inactive: 0.929.

In the case of GGAUAGCCUGGAACUUAUCTT against Tnni3k, the z-score is inactive: 0.239. Under GCGAAUUCGAGAAAACCUGTT against Celsr1 stands inactive: 0.587; under CGAAAAUAUGGAUACUACUTT against Ippk, inactive: 0.732. Take GGAAAGAAACAAAGAAUGATT against Tmem154: the z-score is inactive: 1.12.

Consider GGGAAAAGUGGUAAAUUAUTT against Shprh, for which the z-score is inactive: 0.194. To GCUCAGUUCUGUCACUUGCTT against Rs1 belongs inactive: -0.607; to GCCGAGAAUGCUGAGUUCATT against Hmox1, inactive: 0.0106; to CGAGUCAUUACCAAUUACUTT against F13a1, inactive: 0.634. To GCACUUUGUAUAUCUUUCCTT against Btd belongs inactive: 1.51; to GACAAAGCCUAGAAUCAAUTT against Olfr402, inactive: -0.946; to GGCUAUUUUGGCUUGUAAATT against Jam2, inactive: -0.504. As to GGAAGAAGAUGAAGACAUUTT against Trp53inp1, the z-score was inactive: 0.976. GGAAAACCGAGAAAAAAUGTT against Xpa: the z-score was inactive: 0.0658. Regarding GUGAACUCUUAUCGAUUACTT against Vmn1r46, the z-score was inactive: -0.886. To GGUGGAUUGACUAUGGCAATT against Kdm4d belongs inactive: 1.65; to CCAGCAGAUAUUCUUACGGTT against Grb2, inactive: 1.19. Regarding CGUGAAGCAAGCCUUACCCTT against Pqlc3, the z-score is inactive: -0.0951. Under GGAUGUGGAAGAGUUAAUUTT against Pakap stands inactive: -0.62; under CCGAGCACUCACUGUUUUATT against Ryr3, inactive: 0.627.

In the case of CGAAAUACCGAUGACUGGGTT against Zfp689, the z-score is inactive: -0.417.

As to CGGCGACACCAUAAUUUGGTT against Il1r1, the z-score was inactive: -0.0723. To CCCAAAGCUAUCAUAUCAATT against Aff4 belongs inactive: 0.508; to CGGUAUCAAGUGGUACUACTT against Angpt2, inactive: 1.55; to GGCUAGCAGUUCAGUGGAATT against Pex11a, inactive: 1.06. Consider GGAAACUGGUGCUACAUUATT against Usp10, for which the z-score is inactive: 0.747. As to “GGUAUAAGAAGAGAAUCCUTT against 1700128F08Rik”, the z-score was inactive: -0.0096. Under CGCAGAACCCUGGUUUCUATT against Trappc11 stands inactive: -0.232. To GGAUGAAAAGGGACAAAGATT against Wrap53 belongs inactive: -0.629; to CCUACUUGGACAUGAACCGTT against Vps18, inactive: 0.126; to “AUCUGUUCCGGAGGAAUUUTT against 1700029I15Rik”, active: 3.85. As to GGAGUGUAUAUUAUUGGUGTT against Olfr44, the z-score was inactive: 0.621. To CGAUCAAAAGGAUUUCAUCTT against Gjb4 belongs inactive: 0.319; to GCGACCUUUAGUACACGUCTT against Cmtm1, inactive: 1.89; to GGCAUUUUGGAACCUAUAATT against Tspan1, inactive: 0.538.

Regarding CCGUGAGAUAACUAUAGCUTT against Tsg-5, the z-score was inactive: 0.368. Under GGAAAAUUCCUGUGAAUGATT against Bcor stands inactive: 0.812; under GGUGUUUUAUAUGAACUGUTT against Efcab7, inactive: 0.733; under GGAUGAGCUAGAGAUGACCTT against Kcnip1, inactive: 0.0844. Under CCUCAGAACAAAUGAAAAUTT against Nlk stands inactive: -0.62; under GGUGCUUAAUUCCUGUCCCTT against Ggn, inactive: -0.855.

Turning to GGACGUACAAAACUUCCUCTT against Hnrnpf, the z-score is inactive: 1.06. On to GCUCAACUCAAAGCCUGUATT against Ifi27l2a, for which the z-score was inactive: -0.987.

CCCAGAAGAGGUUACAUUUTT against Cd200r4: the z-score is inactive: 0.0312. To CCACUGUCAGGCCAAAAACTT against Anks6 belongs inactive: -1.16. With GGUAGUGGCUUGAACAGGUTT against Vmn1r201, the z-score was inactive: 0.115. Under GGUGGAAGCACUCAAUAAGTT against Pik3cb stands inactive: -1.24; under GGAUACCUAGUUCUUAGUUTT against Mageb18, inactive: 0.151.

Consider GUCAUGAGAUUGAAUACAATT against Olfr569, for which the z-score is inactive: -0.0298. Consider GGAACGAUGGAAAUUGUAUTT against Rap1gds1, for which the z-score is inactive: -1.41.

As for CGGUCUGAUUAAACAAAUUTT against Dpysl4, the z-score was inactive: -0.371. To GCCAGGAUUGGAUGAAAUATT against Ace2 belongs inactive: 1.69. Under CCUCUACUCAAAUUCUUGUTT against Ugt1a2 stands inactive: -0.0765. In the case of GGGACACUAGAAGUAGGGATT against Pramel4, the z-score was inactive: 0.299. Under GGACUUCAUGGAGAGACGUTT against Ap5m1 stands inactive: 0.308; under CCAGAACCGUUUGAGGAGATT against Mrpl2, inactive: -0.17. GCUCUUGCUACUUUUUUCUTT against Olfr823: the z-score is inactive: -0.108. To GCAUAUAAGAGAAGUGCCUTT against Parl belongs inactive: 0.298; to CCAAGAGCCUCUUAAUUACTT against Syt9, inactive: -0.667; to GCCGAAACAAUGUACAGAUTT against Rbpj, inactive: 1.03. Under GUUUUCUUGAGACAGUUAATT against Pigyl stands inactive: -0.88; under GGUGGUGUUUGUCAGCAAATT against Khk, inactive: 0.982; under GGACUUCAGUAUCAAUUGATT against Serpinb7, inactive: 1.01.

As to GGCUACGCCCACAAAAGCUTT against H1f6, the z-score was active: -2.26. For the sequence GGAAUAGUAGCUCUUACUATT against Odf2l, the z-score was inactive: 1.56. As for GGUCGAAAGUCAACUCAGUTT against Tbc1d22b, the z-score was inactive: -0.698.

As to GGUACUUUGGAGAUUGUAATT against Rdh14, the z-score is inactive: -0.462. Under GGAUAUUUGUCAAUGGACGTT against Glrx2 stands inactive: -1.2; under GGAUUUACUGGGAAAGGUUTT against Vmn1r82, inactive: 0.00481; under CCACUUCUACCAUCAUUGATT against AU040320, inactive: -0.659.

Regarding CGUGUGGACUUGACAAGAUTT against Cklf, the z-score is inactive: -1.34. On to GCCAGACCAAACCCGAAUUTT against Fbl, for which the z-score is inactive: -0.543.

As to CCAGGUUUUUUAACAGAGATT against Hipk1, the z-score is inactive: -0.212. To CUUGUGGGUCUAUGGACGGTT against Olfr1348 belongs inactive: -0.195; to GGAUCUUUUCCAAAGAAAUTT against Dusp10, inactive: -0.409; to GGAUCGUAGCUACAGCCAATT against Ldlrap1, inactive: -0.397. Under GGACACCAUGGAAGACUCUTT against Krtap6-5 stands inactive: -0.999; under GGAAGACUUGAUAGAUGAATT against C4b, inactive: 0.598; under GGAGGUGGAUCAAAUGGCATT against Gnrh1, inactive: -0.667. For GGACAAAGCUAUGUCUUAATT against Treh, the z-score is inactive: 0.57. To GGACAGGCUUACUUCCUGATT against Vwa5b2 belongs inactive: 0.127. Under CCUCUCCCUACUGUGAAAUTT against Poldip2 stands inactive: 1.18.

Consider GGCAAAGUUGCCAGAUGAATT against Mettl23, for which the z-score was active: 2.42. Under GGCCCUAGUUACAACAAAATT against Vmn1r76 stands inactive: -1.13; under CCUUUUUUAUAUCCACUCATT against Bahcc1, inactive: 1.22.

On to GGCCUAGCUGUAUGUUUAGTT against Tex19.1, for which the z-score was inactive: 1.29.

In the case of CGAAUACUUUGGAAAAUUCTT against Tfb2m, the z-score is inactive: -0.187. Under CCCAACUCAAGCCUCGAAATT against Scpep1 stands inactive: -0.257; under GCAAUGCAAAAGAUGCCCUTT against Chchd7, inactive: 0.0804.

Regarding GGCCAAGAGUAAACAGAAATT against Traip, the z-score was inactive: -1.03.

In the case of GGAAACAACUUUUUGCUUUTT against Zfp704, the z-score was inactive: 1.43. Under GGGCUUGUAUCUACCAUGGTT against Strbp stands active: 2.18.

As to GGGCUGGUCAUUUACUAAGTT against Cdh22, the z-score was inactive: 1.32.

Consider GGAUAAGUCACAGGUCACUTT against Jsrp1, for which the z-score was inactive: -1.45. To GGUUGUGAGUCAGUCUAGUTT against Tia1 belongs inactive: -1.55; to GGGCACACCCAUGAAGACATT against Hnf1a, active: 4.58. Under GGCAGGAUAUGUAUUCUGATT against Tmem121b stands inactive: 1.15; under CCCACAACUGCAAAUUGUGTT against Olfr782, inactive: -1.21; under GGGAUAAUUGUUUCUGAUUTT against Ttc26, inactive: 0.319.

Consider GGCUCCUGAUUGAACAAAATT against Plod1, for which the z-score was inactive: 1.14. To CCUCUGUGACCUUUCAUGATT against Dhrsx belongs inactive: -1.09; to GGUGAACCUGGAAGAACUATT against Manea, inactive: 1.64. In the case of GGCACAGAAAAAGAAAAUUTT against Usp3, the z-score was inactive: -0.624. Under GGUAUCUCAGUCACGAAGATT against Rora stands inactive: 0.554; under GGCCUUAUCGGCAGAUAUUTT against Tmem44, inactive: -1.24; under GGGAUGAACGAAAUCAGUCTT against Myo5a, inactive: 0.998. Turning to GCCUAAUCCCUUAAUCUACTT against Oas1g, the z-score is inactive: -1.08.
